# Values joined by “and” are separate entries in the source; they are usually repeats but may differ in a detail not shown here. Equal entries are not always repeated. Screen size: about 300,000 compounds; about 5,400 (1.8%) were called active. This list was built around the results that the source calls inconclusive (neither active nor inactive); the mix of calls is not that of the screen. The call rests on the fitted dose curve; tested in HEK293 cells. A potency beside an inconclusive call is a rough fit, not a confirmed value. Non-standard residues stand in square brackets, D forms with d. Residues, ends and D or L forms follow the SMILES beside them. ξ: configuration not given here. *: point of attachment. ξY = NC(Cc1ccc(O)cc1)C(=O)O; Cbz = O=C(OCc1ccccc1)*; OtBu = CC(C)(C)O*; tBu = CC(C)(C)*
# Assay: qHTS for inhibitors of binding or entry into cells for Marburg Virus
# Conditions: Marburg virus pseudotyped entry inhibition, cell reporter; activity change, negative = inhibition: at 37.8 µM (top of the series) unless noted
# On the % scale 0 is the no-effect control and ±100 the full control effect; potency means the concentration at half of the fitted maximal effect.
SMILES,Potency,"activity change, negative = inhibition"
Cc1cccc(/C=C/C(=O)c2cc(Br)ccc(=O)c2O)c1,"inconclusive: 35.5 µM [inhibitor, single point]",
Cc1c(Cl)cccc1NC(=O)CCN1CCCCC1,"inconclusive: 5.17 µM [inhibitor, partial curve, poor fit]",
CC(=O)O[C@H]1C[C@@H]2OC3C=C(C)CCC3(C)[C@@]1(C)[C@@]21CO1 (stereo partly drawn),active: 0.447 µM,
CCc1ccc2nc(N(CCCN(C)C)C(=O)c3ccc4c(c3)OCCO4)sc2c1,"inconclusive: 10 µM [inhibitor, partial curve, poor fit]",
CN1CCN(C2=C(Cl)C(=O)c3ccccc3C2=O)CC1,"inconclusive: 15.8 µM [inhibitor, single point]",
O=C1c2ccccc2C(=O)C1c1ccncc1,"inconclusive: 15.8 µM [inhibitor, single point]",
CC1=C(C(N)=O)C(c2cccs2)n2ncnc2N1 (stereo not drawn),"inconclusive: 1 µM [inhibitor, full curve, poor fit]",
COc1ccc(CCNCC(=O)N2C(C)CCCC2C)cc1OC (stereo not drawn),,inactive: -18.1% [at 46.1 µM]
N#CC(=C(O)CN1CCN(c2ccccc2F)CC1)c1nc(-c2ccc(Cl)cc2)cs1,"inconclusive: 5.62 µM [inhibitor, single point]",
O=C(NCCCN1CCCC1=O)C1CCN(S(=O)(=O)c2cccc(C(F)(F)F)c2)CC1,"inconclusive: 35.5 µM [activator, single point]",
CCc1ccc(N2C(=O)CC(N3CCN(Cc4ccc5c(c4)OCO5)CC3)C2=O)cc1 (stereo not drawn),,inactive: 8.08% [at 46.1 µM]
CC1CN(Cc2cn(C)nc2-c2ccc(Oc3ccccc3)cc2)CCN1C (stereo not drawn),"inconclusive: 35.5 µM [inhibitor, single point]",
O=C(O)CC1(CC(=O)Nc2ccc(C(F)(F)F)cc2)CCCC1,,inactive: 14.1% [at 46.1 µM]
CCCOC(=O)Cc1n[nH]c(=O)[nH]c1=O,"inconclusive: 35.5 µM [activator, single point]",
COCC(C)NC(=O)c1noc2c1CCc1cc(OC)ccc1-2 (stereo not drawn),"inconclusive: 1.03 µM [inhibitor, single point]",
COc1ccc(Nc2cc(C)nc3ccccc23)cc1,"inconclusive: 32.6 µM [inhibitor, single point]",
COCCN1C(=O)N(c2cccc(OC)c2)C(=O)C1CC(=O)Nc1ccccc1 (stereo not drawn),"inconclusive: 0.708 µM [inhibitor, full curve, poor fit]",
C/C(=N\NC(=O)c1ccn(C)n1)c1ccc(NC(=O)c2cccc(F)c2)cc1,"inconclusive: 1 µM [activator, full curve, poor fit]",
CCOC(=O)N1CCN(c2ccc(S(=O)(=O)N3CCOCC3)cc2[N+](=O)[O-])CC1,,inactive: -6.84%
COc1ccc(CNC(=O)COC(=O)c2n[nH]c3ccccc23)cc1,,inactive: -2.09%
O=C(CCCCCN1C(=O)c2ccccc2C1=O)Nc1ccc2c(c1)OCCO2,,inactive: 12.9%
Cn1cc(/C=C(\NC(=O)c2ccccc2Cl)C(=O)NCCCn2ccnc2)c2ccccc21,"inconclusive: 35.5 µM [inhibitor, single point]",
COc1cccc(C2=CC(c3cccc(OC)c3OC(F)F)n3nnnc3N2)c1 (stereo not drawn),,inactive: -22%

SMILES,Potency,"activity change, negative = inhibition"
S=C(NCCc1ccccc1)N/N=C/c1ccccc1Cl,"inconclusive: 0.794 µM [activator, single point]",
CC1CN(C(=O)COc2ccc3ccccc3c2Br)CC(C)O1 (stereo not drawn),"inconclusive: 7.08 µM [inhibitor, partial curve, poor fit]",
CCOC(=S)SCC(=O)Nc1ncc(C)s1,"inconclusive: 22.4 µM [inhibitor, single point]",
CSc1ccccc1NC(=O)Nc1cccc(F)c1,"inconclusive: 3.98 µM [inhibitor, partial curve, poor fit]",
Cc1ccccc1Nc1nnc(SCC(=O)NC2CCCc3ccccc32)s1 (stereo not drawn),"inconclusive: 1.12 µM [inhibitor, partial curve, poor fit]",
O=C(c1ccc(Br)o1)N1CCC(c2nc3ccccc3[nH]2)CC1,,inactive: 4.66%
COc1nc(NCCC2=CCCCC2)nc(OC)n1,,inactive: 1.16%
CCOc1ccc(C(=O)NCC(=O)OCc2cc(C(C)=O)ccc2OC)cc1,,inactive: 25.5% [at 46.1 µM]
CS(=O)(=O)c1ccc(Cl)c(S(=O)(=O)NCc2ccccc2)c1,,inactive: 15%
Cc1cc(C)c(N(C(=O)Cn2nnc3ccccc32)C(C(=O)NC(C)(C)C)c2ccsc2)c(C)c1 (stereo not drawn),,inactive: -15.8%
COc1ccccc1/C=C/CN1CCCC(CO)(CCc2ccccc2)C1 (stereo not drawn),"inconclusive: 8.91 µM [inhibitor, partial curve, poor fit]",
COC(=O)c1cccc(NC(=O)c2cnn(C)c2)c1,,inactive: 3.86% [at 46.1 µM]
Cc1ccc(S(=O)(=O)N(C)c2ccc(OC(C)C(=O)N(C)c3ccccc3)cc2)cc1 (stereo not drawn),,inactive: -29.1%
CN(C(=O)c1ccccc1)c1nc2ccccc2s1,active: 8.91 µM,
COc1ccc(-c2cc(C(=O)NC(C)C)no2)cc1,"inconclusive: 3.26 µM [activator, partial curve, poor fit]",
COc1ccc(/C=C/c2nnc(NC(=O)COc3ccccc3)s2)cc1,,inactive: 12.6% [at 46.1 µM]
O=C(Nc1ccccc1Cl)c1ccc2nsnc2c1,"inconclusive: 4.47 µM [inhibitor, full curve]",
Cc1ccccc1-c1nnc(SCC#N)o1,"inconclusive: 5.01 µM [inhibitor, single point]",
O=C1c2ccccc2-c2onc3ccc(Oc4ccccc4)c1c23,"inconclusive: 7.08 µM [inhibitor, partial curve, poor fit]",
NC(=O)C1CCN(c2ccc(S(=O)(=O)N3CCC(Cc4ccccc4)CC3)cn2)CC1,"inconclusive: 11.2 µM [inhibitor, partial curve, poor fit]",
O=C(O)CC1c2ccccc2CCN1S(=O)(=O)c1cccs1 (stereo not drawn),,inactive: -8.94% [at 46.1 µM]
CN1CCN(C(c2ccc(Br)cc2)c2cc(Cl)c3cccnc3c2O)CC1 (stereo not drawn),"inconclusive: 12.6 µM [inhibitor, partial curve, poor fit]",
Cc1nn(CC(=O)Nc2ccccn2)c(=O)c2ccccc12,,inactive: -8.55%

SMILES,Potency,"activity change, negative = inhibition"
O=C(CSc1nnc(Cc2cccs2)n1Cc1ccco1)Nc1cc(Cl)cc(Cl)c1,"inconclusive: 23.1 µM [inhibitor, single point]",
CCCCCn1c(=N)c(S(=O)(=O)c2ccc(C)cc2)cc2c(=O)n3cc(C)ccc3nc21,,inactive: 6.07% [at 46.1 µM]
Cc1ccc(C(=O)CSc2ncnc3sc4c(c23)CCC(C)C4)cc1 (stereo not drawn),,inactive: 7.08%
O=C(Nc1ccc(S(=O)(=O)N2CCCC2)cc1)c1ccc(OCC2CCCO2)cc1 (stereo not drawn),"inconclusive: 35.5 µM [inhibitor, single point]",
CC(C)CCNC(=O)CN(Cc1ccco1)C(=O)CCC(=O)Nc1nccs1,"inconclusive: 14.1 µM [inhibitor, single point]",
COc1ccc(S(=O)(=O)c2cc3cc(C(C)(C)C)cc(O)c3oc2=O)cc1,,inactive: -2.71% [at 46.1 µM]
O=c1c2sc3ccccc3c2n(Cc2cccc(C(F)(F)F)c2)c(=O)n1-c1ccccc1,"inconclusive: 25.1 µM [inhibitor, single point]",
CC(NC(=O)/C(C#N)=C/c1ccc(Cl)c([N+](=O)[O-])c1)c1ccccc1 (stereo not drawn),"inconclusive: 10.3 µM [inhibitor, partial curve, poor fit]",
Cc1ccsc1C(=O)Nc1ccc(O)c(-c2nc3ccccc3s2)c1,,inactive: 16.1%
CN(C)c1ccc(NS(=O)(=O)c2ccc(-c3csnn3)cc2)cc1,"inconclusive: 10 µM [inhibitor, partial curve, poor fit]",
CCOC(=O)N1CCC(N(C(=O)Nc2ccc(Cl)c(Cl)c2)C(C)CC)CC1 (stereo not drawn),"inconclusive: 20.6 µM [inhibitor, single point]",
COc1ccccc1N1CCN(CCCNc2c(C)c(=O)n(C)c(=O)n2C)CC1,"inconclusive: 6.51 µM [activator, partial curve, poor fit] and inconclusive: 10 µM [inhibitor, single point]",
CC(C)(C)OC(=O)C(Cc1ccc(OC(C)(C)C)cc1)NC(=O)CNC(=O)OCc1ccccc1 (stereo not drawn) (Cbz-Gly-[ξY](tBu)-OtBu),"inconclusive: 10 µM [inhibitor, partial curve, poor fit]",
CC(=O)C1CCC2C3C(N4CC4)CC4=CC(=O)CCC4(C)C3CCC12C (stereo not drawn),"inconclusive: 7.94 µM [inhibitor, partial curve, poor fit]",
NC(=O)c1c(Br)n(C2OC(CO)C(O)C2O)c2ncnc(N)c12 (stereo not drawn),"inconclusive: 2 µM [inhibitor, full curve, poor fit]",
O=C(c1ccc(NS(=O)(=O)/C=C/c2ccccc2)cc1)N1CCCCC1,"inconclusive: 35.5 µM [inhibitor, partial curve, poor fit]",
CC(C)CCSc1nc(N2CCOCC2)c2c(c1C#N)CC(C)(C)OC2,"inconclusive: 0.517 µM [inhibitor, partial curve, poor fit]",
CCOC(=O)c1c(NC(=O)COc2ccccc2)sc2c1CC(C)(C)NC2(C)C,"inconclusive: 3.16 µM [inhibitor, single point]",
O=C1c2ccccc2C(=O)N1c1ncccn1,,inactive: 1.07%
O=C(NCc1ccccc1)C12CC3CC(CC(Br)(C3)C1)C2,"inconclusive: 6.31 µM [inhibitor, single point]",
O=C(CSc1nnc(SCc2ccccc2)s1)N/N=C/C=C/c1ccco1,"inconclusive: 0.562 µM [inhibitor, single point]",
COc1ccc(CNC(=O)C2CCN(C(=O)c3cnn(-c4ccccc4)c3-n3cccc3)CC2)cc1,"inconclusive: 6.31 µM [activator, single point]",

# An excerpt of these results, bar-delimited.
SMILES | Potency | activity change, negative = inhibition
O=C1c2ccccc2C(=O)N1c1ncccn1 |  | inactive: 1.07%
COc1ccc(CNC(=O)C2CCN(C(=O)c3cnn(-c4ccccc4)c3-n3cccc3)CC2)cc1 | inconclusive: 6.31 µM [activator, single point] | 
